# Data from PubChem BioAssay AID588590 (National Center for Advancing Translational Sciences (NCATS), 2011).
# The chains behind the UniProt entries cited, without tags or fusion partners. Where a name states a change or a piece, a line headed by the entry shows the natural chain unless it says otherwise.
# UniProt Q9UNA4: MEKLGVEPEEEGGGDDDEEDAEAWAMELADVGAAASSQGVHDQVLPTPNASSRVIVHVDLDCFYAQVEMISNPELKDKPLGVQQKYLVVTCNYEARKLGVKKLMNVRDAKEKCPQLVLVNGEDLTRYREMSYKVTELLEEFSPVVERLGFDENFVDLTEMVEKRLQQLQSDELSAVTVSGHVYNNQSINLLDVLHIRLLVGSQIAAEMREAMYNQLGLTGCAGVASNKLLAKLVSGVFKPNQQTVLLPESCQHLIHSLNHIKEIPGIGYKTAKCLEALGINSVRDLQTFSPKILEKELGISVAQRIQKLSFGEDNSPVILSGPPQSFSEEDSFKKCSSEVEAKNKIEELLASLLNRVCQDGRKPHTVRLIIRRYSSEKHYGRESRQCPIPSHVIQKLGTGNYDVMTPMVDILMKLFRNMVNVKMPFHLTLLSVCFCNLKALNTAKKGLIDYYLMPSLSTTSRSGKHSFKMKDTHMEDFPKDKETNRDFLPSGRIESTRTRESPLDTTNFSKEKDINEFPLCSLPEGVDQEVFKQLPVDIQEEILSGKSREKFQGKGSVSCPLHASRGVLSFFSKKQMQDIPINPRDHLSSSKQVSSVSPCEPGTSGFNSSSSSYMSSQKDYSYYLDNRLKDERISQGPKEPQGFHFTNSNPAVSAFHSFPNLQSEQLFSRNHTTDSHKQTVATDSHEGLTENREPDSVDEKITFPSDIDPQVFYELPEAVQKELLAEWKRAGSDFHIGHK
# Out of some 390,000 compounds screened, about 4,000 (1%) were called active. Inconclusive means that the source gave no clear call. Such entries were picked first, then a sample of the others. Calls follow the shape of the dose curve; as a rule, active = well fitted inhibition curve with a large enough effect; inconclusive = small, poorly fitted or top-dose-only effect, or another doubt; inactive = no such curve, though single readings can be large or run the other way. Potencies of inconclusive entries are doubtful fits and often do not repeat.
# Molecular target: DNA polymerase iota (Homo sapiens) (UniProt Q9UNA4)
# Assay: qHTS for Inhibitors of Polymerase Iota
# Conditions: Pol iota fluorescent replication assay, 10 min; series mostly up to 115 µM
# Outline: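 Pol iota at 10 nM preincubated 15 min with compounds at room temperature; reaction started with fluorescent substrate, 50 nM final. Fluorescence read kinetically at 0 and 10 min; buffer-only wells as negative control.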
# Potency is read from the fitted curve at half-maximal effect.
row,Structure (SMILES),Potency
1,Cc1noc(C)c1COc1ccc(C(=O)NNC(=O)c2ccccc2F)cc1,inactive
2,CC(=O)N1CCCc2cc(S(=O)(=O)N3CCC(C(=O)NCc4ccc(F)cc4)CC3)ccc21,inactive
3,COc1cc2oc(-c3ccc(O)cc3)cc(=O)c2c(O)c1OC,"inconclusive: 22.4 µM [inhibitor, partial curve, poor fit]"
4,CCOC(=O)c1c(C)oc2nc(C)nc(N3CCN(c4ccc(C)cc4C)CC3)c12,"inconclusive: 100 µM [inhibitor, partial curve, poor fit]"
5,Cc1c(NC(=O)c2ccc3nsnc3c2)cccc1[N+](=O)[O-],active: 25.1 µM
6,O=C(N/N=C/c1ccc([N+](=O)[O-])o1)c1cc(-c2cccc(Br)c2)nc2ccccc12,"inconclusive: 79.4 µM [inhibitor, partial curve, poor fit]"
7,Cc1csc(SC(C)C(=O)NC2CCCCC2C)n1 (stereo not given),"inconclusive: 89.1 µM [inhibitor, single point]"
8,COc1ccccc1OCC(=O)Nc1ccc2c(c1)OCO2,"inconclusive: 20 µM [inhibitor, full curve]"
9,O=C(O)CCCCCN1C(=O)/C(=C\c2cn(-c3ccccc3)nc2-c2cccs2)SC1=S,"inconclusive: 50.1 µM [inhibitor, partial curve, poor fit]"
10,Cc1ccc(Nc2cc(C(=O)NC3CCCC3)c3ccccc3n2)cc1C,inactive
11,CC(C)(C)OC1NS(=O)(=O)OCC1NCOC(Cl)(Cl)Cl (stereo not given),"inconclusive: 31.6 µM [inhibitor, single point]"
12,CS(=O)(=O)c1ccccc1-c1csc(N2CCC(C(N)=O)CC2)n1,"inconclusive: 50.1 µM [inhibitor, partial curve, poor fit]"
13,O=c1c(C(c2ccc(O)cc2)c2c(O)nc3n(c2=O)CCCS3)c(O)nc2n1CCCS2,"inconclusive: 14.1 µM [inhibitor, partial curve, poor fit]"
14,CNc1c(NS(=O)(=O)c2ccc(C3CCCCC3)cc2)c(=O)oc2ccccc12,inactive
15,CC(C)C(=O)C1=Cc2cccc([N+](=O)[O-])c2OC1N1CCOCC1 (stereo not given),"inconclusive: 28.2 µM [inhibitor, partial curve]"
16,Cc1nc(-c2ccc(-n3nncc3-c3ccco3)cc2)cs1,"inconclusive: 25.1 µM [inhibitor, full curve, poor fit]"
17,COc1cc(/C=C(\C#N)C(=O)NC2CCCCC2)ccc1OCc1ccc(C(=O)O)cc1,"inconclusive: 20 µM [inhibitor, single point]"
18,CCCN1CNC(=S)N(c2cc(C)ccc2C)C1,"inconclusive: 100 µM [inhibitor, partial curve, poor fit]"
19,O=Cc1cccn1-c1nccc(-c2ccco2)n1,"inconclusive: 89.1 µM [inhibitor, partial curve, poor fit]"
20,Cc1sc(NC(=O)C2CCCO2)c(C(N)=O)c1C (stereo not given),"inconclusive: 17.8 µM [inhibitor, full curve, poor fit]"
21,COc1cccc(OC)c1-c1nn2c(-c3ccco3)nnc2s1,"inconclusive: 100 µM [inhibitor, single point]"
22,CNS(=O)(=O)c1cccc(C(=O)OCC(=O)c2cc(C)n(CC3CCCO3)c2C)c1 (stereo not given),"inconclusive: 56.2 µM [inhibitor, partial curve]"

# 16 consecutive records already listed:
row,Structure (SMILES),Potency
6,O=C(N/N=C/c1ccc([N+](=O)[O-])o1)c1cc(-c2cccc(Br)c2)nc2ccccc12,"inconclusive: 79.4 µM [inhibitor, partial curve, poor fit]"
7,Cc1csc(SC(C)C(=O)NC2CCCCC2C)n1 (stereo not given),"inconclusive: 89.1 µM [inhibitor, single point]"
8,COc1ccccc1OCC(=O)Nc1ccc2c(c1)OCO2,"inconclusive: 20 µM [inhibitor, full curve]"
9,O=C(O)CCCCCN1C(=O)/C(=C\c2cn(-c3ccccc3)nc2-c2cccs2)SC1=S,"inconclusive: 50.1 µM [inhibitor, partial curve, poor fit]"
10,Cc1ccc(Nc2cc(C(=O)NC3CCCC3)c3ccccc3n2)cc1C,inactive
11,CC(C)(C)OC1NS(=O)(=O)OCC1NCOC(Cl)(Cl)Cl (stereo not given),"inconclusive: 31.6 µM [inhibitor, single point]"
12,CS(=O)(=O)c1ccccc1-c1csc(N2CCC(C(N)=O)CC2)n1,"inconclusive: 50.1 µM [inhibitor, partial curve, poor fit]"
13,O=c1c(C(c2ccc(O)cc2)c2c(O)nc3n(c2=O)CCCS3)c(O)nc2n1CCCS2,"inconclusive: 14.1 µM [inhibitor, partial curve, poor fit]"
14,CNc1c(NS(=O)(=O)c2ccc(C3CCCCC3)cc2)c(=O)oc2ccccc12,inactive
15,CC(C)C(=O)C1=Cc2cccc([N+](=O)[O-])c2OC1N1CCOCC1 (stereo not given),"inconclusive: 28.2 µM [inhibitor, partial curve]"
16,Cc1nc(-c2ccc(-n3nncc3-c3ccco3)cc2)cs1,"inconclusive: 25.1 µM [inhibitor, full curve, poor fit]"
17,COc1cc(/C=C(\C#N)C(=O)NC2CCCCC2)ccc1OCc1ccc(C(=O)O)cc1,"inconclusive: 20 µM [inhibitor, single point]"
18,CCCN1CNC(=S)N(c2cc(C)ccc2C)C1,"inconclusive: 100 µM [inhibitor, partial curve, poor fit]"
19,O=Cc1cccn1-c1nccc(-c2ccco2)n1,"inconclusive: 89.1 µM [inhibitor, partial curve, poor fit]"
20,Cc1sc(NC(=O)C2CCCO2)c(C(N)=O)c1C (stereo not given),"inconclusive: 17.8 µM [inhibitor, full curve, poor fit]"
21,COc1cccc(OC)c1-c1nn2c(-c3ccco3)nnc2s1,"inconclusive: 100 µM [inhibitor, single point]"

# Next compounds.

row,Structure (SMILES),Potency
1,Cc1ccc(-c2nc(-c3nccc4ccccc34)oc2-c2ccccc2)cc1,"inconclusive: 10 µM [inhibitor, single point]"
2,COC(=O)c1cc(NC2c3ncccc3C(=O)N2Cc2ccccc2)cc(C(=O)OC)c1 (stereo not given),"inconclusive: 20 µM [inhibitor, partial curve, poor fit]"
3,Cc1ccc(C(=O)Nc2cccc(C(=O)OCc3cc(=O)n4c5c(sc4n3)CCCC5)c2)cc1,inactive
4,CN(CCO)c1ccc(C=NNc2ccc([N+](=O)[O-])cc2S(=O)(=O)Nc2ccccc2C(=O)O)cc1,"inconclusive: 28.2 µM [inhibitor, single point]"
5,COc1ccc(C(=O)Sc2ccc(C)cc2)cc1OC,"inconclusive: 14.1 µM [inhibitor, single point]"
6,CCCCOc1ccc(CNC(=O)Cn2ncn3c(cc4cc(F)ccc43)c2=O)cc1,inactive
7,COc1ccc(CNC(=O)c2cc3ccccn3n2)c(OC)c1,inactive
8,C#CCOCCOCCOCCNc1nc(N2CCN(C(=O)CCCCCCCCCCNC(=O)Cn3cc(C[C@@H](C)O)nn3)CC2)nc(N2CCN(C(=O)CCCCCCCCCCNC(=O)[C@H](CO)n3cc(CCCSC)nn3)CC2)n1,inactive
9,O=C(CS(=O)(=O)c1cn(CC(=O)N2CCCC2)c2ccccc12)Nc1ccccc1,"inconclusive: 89.1 µM [inhibitor, single point]"
10,CCOC(=O)C1CCN(c2nc(C)cc(C)c2C#N)CC1,inactive
11,CCOc1ccc(NC(=O)Cn2c(=O)n(CCc3ccccc3)c(=O)c3c4c(sc32)CN(C(C)=O)CC4)cc1,inactive
12,O=C(CN1C(=O)c2ccccc2S1(=O)=O)c1ccc(OC(F)F)cc1,"inconclusive: 89.1 µM [inhibitor, single point]"
13,COc1ccc(OC)c(NC(=O)CN2C(=O)CC(c3ccco3)Sc3ccccc32)c1 (stereo not given),"inconclusive: 100 µM [inhibitor, single point]"
14,Cc1occc1C(=O)NCc1nc(-c2ccc(Cl)cc2)no1,inactive
15,COC(=O)c1ccc(N(CC(=O)NC2CCCC2)C(=O)CNC(=O)c2ccco2)cc1,"inconclusive: 35.5 µM [inhibitor, single point]"
16,CC(=O)Nc1ccc(SCC(=O)Nc2ccc3c(c2)OCCO3)cc1,"inconclusive: 28.2 µM [inhibitor, partial curve, poor fit]"
17,Cc1cc(N2CCCC2)ccc1/C=C1\NC(=S)N(C)C1=O,"inconclusive: 100 µM [inhibitor, single point]"
18,COc1ccc(-n2c(C)cc(/C=C/c3nc(O)c([N+](=O)[O-])c(=O)[nH]3)c2C)cc1,"inconclusive: 56.2 µM [inhibitor, partial curve, poor fit]"
19,O=C(NCC1CCCO1)c1cc2nc(-c3ccco3)cc(C(F)(F)Cl)n2n1 (stereo not given),"inconclusive: 25.1 µM [inhibitor, full curve, poor fit]"
20,CCCCNc1sc(S(=O)(=O)CC)nc1S(=O)(=O)c1ccc(C)cc1,"inconclusive: 63.1 µM [inhibitor, partial curve, poor fit]"
21,COc1ccc(C(=O)Nc2ccc(OCC(=O)N3CCOCC3)cc2)c(OC)c1OC,inactive
22,CN(C(=O)CSc1cn(CC(=O)N2CCCCCC2)c2ccccc12)c1ccccc1,"inconclusive: 89.1 µM [inhibitor, single point]"

row,Structure (SMILES),Potency
1,COc1ccccc1N1CCN(/N=C/c2cc(OC)c(OC)c(OC)c2)CC1,"inconclusive: 89.1 µM [inhibitor, single point]"
2,O=C(NC(=S)N1CCCc2ccccc21)c1ccc(Cl)cc1,inactive
3,Cc1cccc(C(=O)Nc2ccc(-c3nc4ccccc4s3)c(C)c2)c1,"inconclusive: 89.1 µM [inhibitor, partial curve, poor fit]"
4,CC(C)CCC(CCN1CCCC1)c1ccc2c(c1)OCO2 (stereo not given),inactive
5,O=C(Nc1cc(C(F)(F)F)ccc1Cl)c1cc(S(=O)(=O)NCc2ccccc2)ccc1F,inactive
6,CCCCN(Cc1ccccc1)C(=O)CN(C)S(=O)(=O)c1ccc2c(c1)c(=O)n(C)c(=O)n2C,inactive
7,Cc1cc(=O)[nH]c(SCC(=O)Nc2ccc(S(N)(=O)=O)cc2)n1,active: 39.8 µM
8,O=C(O)c1cc2cccc(S(=O)(=O)N3CCCCC3)c2cc1O,inactive
9,O=C(CN1C(=O)c2ccccc2C1=O)NCC(=O)OCC(=O)c1cccc([N+](=O)[O-])c1,inactive
10,O=C(Nc1cccc(-c2nc3cccnc3s2)c1)c1ccc(Cl)nc1,"inconclusive: 14.1 µM [inhibitor, partial curve, poor fit]"
11,Cc1ccc(S(=O)(=O)Nc2cccc(C(=O)NCC(c3ccco3)N(C)C)c2)cc1F (stereo not given),"inconclusive: 15.8 µM [inhibitor, full curve, poor fit]"
12,COc1ccc(OCC(=O)Nc2cc3c(cc2C(=O)O)OCCCO3)cc1,inactive
13,Cc1ccc2c(CC(=O)N3CCN(S(=O)(=O)c4ccccc4)CC3)coc2c1,"inconclusive: 56.2 µM [inhibitor, partial curve, poor fit]"
14,CCOC(=O)c1sc(=S)n2c1[nH]c(=O)c1ccc(C(=O)OC)cc12,"inconclusive: 14.1 µM [inhibitor, partial curve, poor fit]"
15,O=C1/C(=C\c2cc([N+](=O)[O-])ccc2O)SC(=S)N1Cc1ccc(Cl)cc1,"inconclusive: 3.16 µM [inhibitor, partial curve, poor fit]"
16,Cn1c(NC(=O)c2ccccc2)nc2ccccc21,"inconclusive: 31.6 µM [inhibitor, single point]"
17,O=C(OC(C(=O)N1CCOCC1)c1ccccc1)c1c2c(nc3ccccc13)CCCC2 (stereo not given),inactive
18,COC(=O)c1sc(-c2ccc(Cl)cc2)cc1NC(=O)/C=C/C(=O)O,"inconclusive: 25.1 µM [inhibitor, single point]"
19,COc1ccc(C2Nc3ccccc3C(=O)N2NS(=O)(=O)c2ccc(C)cc2)cc1 (stereo not given),"inconclusive: 100 µM [inhibitor, single point]"
20,Cc1cc(C)c(C(=O)COC(=O)Cn2cnnn2)cc1C,inactive
21,CN(CCc1ccccn1)Cc1ccc(Cl)cc1Cl,"inconclusive: 12.6 µM [inhibitor, full curve, poor fit]"
